Laboratory results as given in patent US11654096B2 (L'OREAL, priority 2017, dated 2023).

System: normal human epidermal keratinocytes (NHEKs)
Assay: Neosynthesis of sulfated GAGs by NHEKs, [35S]-sulfate incorporation
Format: cell-based
Details: t-test vs control
Experimental: The effects of the compounds on the neosynthesis of total and sulfated glycosaminoglycans (GAGs) were studied on two cell models, normal human epidermal keratinocytes (NHEKs) and normal human dermal fibroblasts (NHDFs). The effects of these compounds were evaluated by measuring: • the incorporation of [3H]-glucosamine into the total GAGs neosynthesized by NHEKs and by NHDFs, • the incorporation of [35S]-sulfate into the sulfated GAGs neosynthesized by NHEKs and by NHDFs.
The keratinocytes were seeded into wells and cultured in culture medium for 24 hours. The medium was then replaced with culture medium containing or not containing (control) the compounds to be tested or the reference (4-nitrophenyl β-D-xylopyranoside at 300 μM), then the cells were incubated for 72 hours with the addition of the [3H]-glucosamine radioactive label (total GAGs) or of the [35S]-sulfate radioactive label (sulfated GAGs) for the final 24 hours of incubation.
At the end of the incubation, the glycosaminoglycans were extracted from the cells with a chaotropic buffer. The GAGs were then purified by ion exchange chromatography: adsorption of the anionic molecules on Q-Sepharose beads and desorption of the molecules of low or medium anionic nature, with a suitable solution.
The radioactivity incorporated into the molecules left on the support (GAGs, predominantly) was measured by liquid scintillation.
All the experimental conditions were performed in n=3.
The inter-group comparisons were performed using Student's non-paired two-sided t-test. The statistical analyses can be interpreted if n≥5; however, for n<5, the data calculated are provided only by way of indication.

Row | SMILES | p(1) (campaign 1, 300 μM) | p(1) (campaign 2, 300 μM) | p(1) (campaign 1, 10 μM) | p(1) (campaign 1, 100 μM) | p(1) (campaign 2, 10 μM) | p(1) (campaign 2, 100 μM) | p(1) (campaign 2, 1 μM)
1 | O=[N+]([O-])c1ccc(O[C@@H]2OC[C@@H](O)[C@H](O)[C@H]2O)cc1 [4-Nitrophenyl β-D-xylopyranoside, 4-nitrophenyl β-D-xylopyranoside] | *** (<0.001, Extremely significant) | *** (<0.001, Extremely significant) |  |  |  |  | 
2 | Oc1ccc(/C=C/c2cc(O)cc(O[C@@H]3OC[C@@H](O)[C@H](O)[C@H]3O)c2)cc1 [Compound 1a, 3-hydroxy-5-[(E)-2-(4-hydroxyphenyl)ethenyl]phenyl β-D-xylopyranoside] |  |  | ** (0.001 to 0.01, Very significant) | *** (<0.001, Extremely significant) | *** (<0.001, Extremely significant) | *** (<0.001, Extremely significant) | 
3 | Oc1cc(O)cc(/C=C/c2ccc(O[C@@H]3OC[C@@H](O)[C@H](O)[C@H]3O)cc2)c1 [Compound 2a, 4-[(E)-2-(3,5-dihydroxy-phenyl)ethenyl]phenyl β-D-xylopyranoside] |  |  |  |  | *** (<0.001, Extremely significant) |  | * (0.01 to 0.05, Significant)
4 | OC[C@H]1O[C@@H](Oc2cc(O)cc(/C=C/c3ccc(O)cc3)c2)[C@H](O)[C@@H](O)[C@@H]1O [Polydatin] |  |  | ns (>0.05, Not significant) | ns (>0.05, Not significant) |  |  | 
5 | Oc1ccc(C=Cc2cc(O)cc(O)c2)cc1 [Resveratrol] |  |  | * (0.01 to 0.05, Significant) | *** (<0.001, Extremely significant) | ns (>0.05, Not significant) |  | * (0.01 to 0.05, Significant)
